Test [1] concerns the target DMi, dimeric AGT (minor allele), expressed in CHO-GO cells (human) (UniProt P21549). Briefly: cross-linking; whole lysate of CHO-GO cells (low-B6 medium) cross-linked with BS(PEG)5 for 30 min, quenched with Tris-HCl, Western blot with anti-AGT. In general terms: Immunoblotting shows a protein as a band on a membrane.
The target in test [2] is DMa, dimeric AGT (major allele), expressed in CHO-GO cells (human) (UniProt P21549). The test is described as above.

The chains behind the UniProt entries cited, without tags or fusion partners. Where a name states a change or a piece, a line headed by the entry shows the natural chain unless it says otherwise. A line that says so, or that is headed by a name, gives the form on record, which may keep a tag or linker.
DMi, dimeric AGT (minor allele), expressed in CHO-GO cells (P21549, form named): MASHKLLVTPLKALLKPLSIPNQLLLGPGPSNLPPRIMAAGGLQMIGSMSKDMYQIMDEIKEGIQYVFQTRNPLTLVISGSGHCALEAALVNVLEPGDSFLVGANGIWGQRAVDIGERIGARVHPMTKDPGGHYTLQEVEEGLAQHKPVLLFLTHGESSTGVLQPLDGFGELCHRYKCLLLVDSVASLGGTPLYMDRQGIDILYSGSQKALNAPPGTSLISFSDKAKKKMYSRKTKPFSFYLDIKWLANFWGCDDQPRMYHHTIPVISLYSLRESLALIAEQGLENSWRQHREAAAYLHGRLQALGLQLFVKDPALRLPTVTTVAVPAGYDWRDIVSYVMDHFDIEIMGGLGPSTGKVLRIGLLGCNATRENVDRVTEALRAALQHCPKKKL

These are yes or no findings as the source states them, for the method shown. Binding seen in cells or lysates may run through a third protein. Some binding calls cover weakened binding; strength is not graded here.

In the case of “DMi, dimeric AGT (minor allele), expressed in CHO-GO cells (from UniProt P21549 1-392) (enzyme)”, the binding entry in test [1] is listed as “binds”.

For “DMa, dimeric AGT (major allele), expressed in CHO-GO cells (from UniProt P21549 1-392) (enzyme)”, the binding result in test [2] is “binds”.

For the origin of these results see PMC8067440 (Journal of Personalized Medicine, 2021).
